Measured values: PubChem BioAssay AID504834 (National Center for Advancing Translational Sciences (NCATS), 2011)
Screen size: about 320,000 compounds; about 22,000 (6.9%) were called active. Inconclusive results, whose numbers are uncertain, are shown with a selection of clear calls. Calls come from the whole dose curve; as a rule, active = well fitted inhibition curve with a large enough effect; inconclusive = small, poorly fitted or top-dose-only effect, or another doubt; inactive = no such curve, though single readings can be large or run the other way. Where the call is inconclusive, the potency comes from a doubtful curve fit.

Test: Primary qHTS for delayed death inhibitors of the malarial parasite plastid, 96 hour incubation
Conditions: P. falciparum luciferase reporter growth; series mostly up to 28.7 µM
Method in brief: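 Readout is luminescence from an integrated firefly luciferase in P. falciparum. Red cells, 2% hematocrit and 0.05% parasitemia final, were cultured with compound through two parasite generations (96 hours) at 37 C, 5% CO2.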
Potency is the fitted concentration of half-maximal effect.

SMILES | Potency
COc1ccc(/C=C/C(=O)c2ccc(Cl)cc2)c(OC)c1 | inactive
OCC1(CCOc2ccccc2)CCN(Cc2ccncc2)CC1 | inconclusive: 18.5 µM [inhibitor, single point]
CC(=O)Nc1cccc(Oc2ncnc3scc(-c4ccc(C(C)C)cc4)c23)c1 | inconclusive: 14.7 µM [inhibitor, single point]
COc1ccc(-n2ncc3c(NCC(C)C)ncnc32)cc1 | inactive
Cc1ccc(S(=O)(=O)NC(CC(N)=O)C(=O)O)cc1 (centres undefined) | inconclusive: 18.5 µM [inhibitor, single point]
O=C(NCCc1cccc(Cl)c1)c1ccc(Cl)c([N+](=O)[O-])c1 | inconclusive: 18.5 µM [inhibitor, single point]
COc1ccc(/C=C/C(=O)Nc2cccc(S(=O)(=O)NC3=NCCCCC3)c2)cc1 | inactive
CS(=O)(=O)N1CCCC(C(=O)NCCCN2CCN(Cc3ccccc3)CC2)C1 (centres undefined) | inconclusive: 0.0828 µM [inhibitor, full curve, poor fit]
Cc1ccc(S(=O)(=O)Nc2cc(C(F)(F)F)ccc2N2CCOCC2)cc1C | inconclusive: 3.29 µM [inhibitor, partial curve, poor fit]
COc1ccc(OC)c(Nc2ccc(C(=O)O)cc2[N+](=O)[O-])c1 | inconclusive: 18.5 µM [inhibitor, single point]
COc1ccc(/C=C2\SC(=O)N(CCNC(=O)Cc3coc4cc(OC)ccc34)C2=O)cc1 | inconclusive: 18.5 µM [inhibitor, single point]
CN(Cc1ccc(C(C)(C)C)cc1)Cc1cccc2ccccc12 | inconclusive: 13.5 µM [inhibitor, single point]
COc1cccc(CN2CCNC(=O)C2CC(=O)NCCn2ccc3ccccc32)c1OC (centres undefined) | inconclusive: 7.38 µM [inhibitor, partial curve, poor fit]
CCCn1c(=O)[nH]c(=O)c2c1nc(-c1ccc(C(F)(F)F)cc1)n2CCOC | inconclusive: 18.5 µM [inhibitor, single point]
O=C(CSc1nnc(-c2ccc(Cl)s2)o1)N1CCOCC1 | inconclusive: 0.415 µM [inhibitor, partial curve, poor fit]
CCCCc1c(O)nc(SCC(=O)c2ccccc2)n(-c2ccccc2OC)c1=O | inactive
C[C@]12CC[C@H]3c4ccc(O)cc4CC[C@@H]3[C@H]1CC[C@@H]2OC(=O)CCC1CCCC1 | active: 13.5 µM
CCCCn1c(=O)c2c(nc3n2CCCN3Cc2ccccc2)n(C)c1=O | inconclusive: 1.04 µM [inhibitor, partial curve]
CCOc1cc(C(=O)NCc2ccc(-c3nc4ccccc4o3)cc2)cc(OCC)c1OCC | inactive
COc1ccc(C(C(=O)NC2CCCCC2)N(C(=O)c2sc(C)nc2C)c2ccccc2)cc1 (centres undefined) | inconclusive: 18.5 µM [inhibitor, single point]
CCOC(=O)CC(=O)CSc1nnc2c(n1)[nH]c1ccccc12 | inactive
CCN(CC(=O)Nc1ccc(NC(C)=O)cc1)C(=O)c1ccc(C(=O)c2ccccc2)cc1 | inconclusive: 16.5 µM [inhibitor, single point]

SMILES | Potency
Cc1cccc(NC(=O)COC(=O)CCc2c[nH]c3ccccc23)c1 | inactive
CC(=O)Nc1ccc(CN(C)CC2CCCN(CCc3cccc(C(F)(F)F)c3)C2)cc1 (centres undefined) | inconclusive: 14.7 µM [inhibitor, single point]
Fc1ccccc1/C=C1\CCCC2=C1Nc1ncnn1C2c1ccccc1F (centres undefined) | active: 1.04 µM
CCC(OCC(O)CN1CCCCC1)c1ccccc1 (centres undefined) | inactive
OC(CN1CCOCC1)c1ccc(F)cc1 (centres undefined) | inactive
Oc1ccccc1-c1cc(-c2ccc(F)cc2)n[nH]1 | inconclusive: 18.5 µM [inhibitor, single point]
CCOC(=O)C1=C(C)N(C)C(=O)NC1c1c(C)nn(-c2ccccc2)c1C (centres undefined) | inconclusive: 11.7 µM [inhibitor, single point]
CCc1nc(NCc2ccccc2)c(C#N)c2c1CCCC2 | inconclusive: 5.22 µM [inhibitor, partial curve, poor fit]
Cc1ccc(CN=c2c([N+](=O)[O-])nn(-c3ccc(Cl)cc3)n2O)cc1 | active: 3.29 µM
Cn1c(O)c(C(=O)c2ccccc2Cl)c(=O)n(C)c1=O | inconclusive: 0.657 µM [inhibitor, full curve, poor fit]
S=C1NC(c2ccccc2)=NCN1c1ccc(Cl)cc1 | inconclusive: 16.5 µM [inhibitor, single point]
COc1ccc(CCNC(=O)COC(=O)Cn2cnc3ccccc32)cc1OC | inactive
CCNc1nc(Oc2ccc(C(=O)OC)cc2)nc(SC)n1 | inconclusive: 7.38 µM [inhibitor, partial curve]
Cc1ccc(-c2cc(-c3ccc(F)cc3)n[nH]2)c(O)c1 | inconclusive: 18.5 µM [inhibitor, single point]
O=C(CSc1nc2ccccc2n1S(=O)(=O)c1cccc([N+](=O)[O-])c1)NCc1cccs1 | inactive
COc1ccc(C)cc1Nc1n[n+](-c2ccccc2)c(-c2ccc(NC(C)=O)cc2)s1 | inconclusive: 14.7 µM [inhibitor, partial curve, poor fit]
COc1ccc2[nH]cc(CCNS(=O)(=O)c3ccccc3)c2c1 | inconclusive: 1.04 µM [inhibitor, full curve, poor fit]
Cc1ccccc1C(=O)NC(=S)NC1CC1 | inconclusive: 16.5 µM [inhibitor, single point]
CN(Cc1nc2c(s1)CCCC2)C(=O)CCc1nnc(-c2ccccc2)o1 | active: 9.28 µM
COc1cc(NC(=S)NC2CC2)c(OC)cc1Cl | inactive
Cc1c(OCC(=O)NCC(O)c2ccccc2)ccc2c3c(c(=O)oc12)CCCC3 (centres undefined) | inconclusive: 5.22 µM [inhibitor, single point]
CCNC(=O)[C@@H]1CCCN1C(=O)[C@H](CCCN=C(N)N)NC(=O)[C@H](CC(C)C)NC(=O)[C@@H](Cc1c[nH]c2ccccc12)NC(=O)[C@H](Cc1ccc(O)cc1)NC(=O)[C@H](CO)NC(=O)[C@H](Cc1c[nH]c2ccccc12)NC(=O)[C@H](Cc1cnc[nH]1)NC(=O)[C@@H]1CCC(=O)N1 | active: 1.51 µM

Some of the entries above in a different format:
SMILES	Potency
OCC1(CCOc2ccccc2)CCN(Cc2ccncc2)CC1	inconclusive: 18.5 µM [inhibitor, single point]
Cc1ccc(S(=O)(=O)NC(CC(N)=O)C(=O)O)cc1 (centres undefined)	inconclusive: 18.5 µM [inhibitor, single point]
Cc1ccc(S(=O)(=O)Nc2cc(C(F)(F)F)ccc2N2CCOCC2)cc1C	inconclusive: 3.29 µM [inhibitor, partial curve, poor fit]
COc1cccc(CN2CCNC(=O)C2CC(=O)NCCn2ccc3ccccc32)c1OC (centres undefined)	inconclusive: 7.38 µM [inhibitor, partial curve, poor fit]
CCCn1c(=O)[nH]c(=O)c2c1nc(-c1ccc(C(F)(F)F)cc1)n2CCOC	inconclusive: 18.5 µM [inhibitor, single point]
CCOC(=O)CC(=O)CSc1nnc2c(n1)[nH]c1ccccc12	inactive
CC(=O)Nc1ccc(CN(C)CC2CCCN(CCc3cccc(C(F)(F)F)c3)C2)cc1 (centres undefined)	inconclusive: 14.7 µM [inhibitor, single point]
Cn1c(O)c(C(=O)c2ccccc2Cl)c(=O)n(C)c1=O	inconclusive: 0.657 µM [inhibitor, full curve, poor fit]
S=C1NC(c2ccccc2)=NCN1c1ccc(Cl)cc1	inconclusive: 16.5 µM [inhibitor, single point]
CN(Cc1nc2c(s1)CCCC2)C(=O)CCc1nnc(-c2ccccc2)o1	active: 9.28 µM
Cc1c(OCC(=O)NCC(O)c2ccccc2)ccc2c3c(c(=O)oc12)CCCC3 (centres undefined)	inconclusive: 5.22 µM [inhibitor, single point]
